Measurements published in the supplement of paper PMC10849652.
Some of the results follow.

The chains behind the UniProt entries cited, without tags or fusion partners. Where a name states a change or a piece, a line headed by the entry shows the natural chain unless it says otherwise.
UniProt Q0VDF9: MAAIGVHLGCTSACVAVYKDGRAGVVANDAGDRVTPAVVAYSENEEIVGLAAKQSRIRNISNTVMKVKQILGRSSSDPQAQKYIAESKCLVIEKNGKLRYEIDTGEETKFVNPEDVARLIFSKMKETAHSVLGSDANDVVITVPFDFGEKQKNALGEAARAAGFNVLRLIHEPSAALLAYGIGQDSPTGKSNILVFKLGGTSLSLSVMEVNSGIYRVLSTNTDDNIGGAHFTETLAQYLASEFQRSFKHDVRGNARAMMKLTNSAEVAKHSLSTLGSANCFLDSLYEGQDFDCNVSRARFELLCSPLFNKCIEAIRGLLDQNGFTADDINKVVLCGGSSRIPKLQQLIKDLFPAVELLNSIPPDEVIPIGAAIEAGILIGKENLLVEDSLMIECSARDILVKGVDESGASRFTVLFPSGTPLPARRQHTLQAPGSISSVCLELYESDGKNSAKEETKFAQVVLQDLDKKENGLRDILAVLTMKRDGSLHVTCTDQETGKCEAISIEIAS
UniProt Q9NQE9: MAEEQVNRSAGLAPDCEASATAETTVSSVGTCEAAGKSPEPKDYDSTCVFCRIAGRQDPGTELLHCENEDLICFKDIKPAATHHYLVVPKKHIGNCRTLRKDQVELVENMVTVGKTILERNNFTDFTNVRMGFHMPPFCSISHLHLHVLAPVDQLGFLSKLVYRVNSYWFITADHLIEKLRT
UniProt P05114: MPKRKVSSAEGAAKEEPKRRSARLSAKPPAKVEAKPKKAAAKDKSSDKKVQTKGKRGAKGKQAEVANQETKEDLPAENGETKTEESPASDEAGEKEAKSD
UniProt Q99714: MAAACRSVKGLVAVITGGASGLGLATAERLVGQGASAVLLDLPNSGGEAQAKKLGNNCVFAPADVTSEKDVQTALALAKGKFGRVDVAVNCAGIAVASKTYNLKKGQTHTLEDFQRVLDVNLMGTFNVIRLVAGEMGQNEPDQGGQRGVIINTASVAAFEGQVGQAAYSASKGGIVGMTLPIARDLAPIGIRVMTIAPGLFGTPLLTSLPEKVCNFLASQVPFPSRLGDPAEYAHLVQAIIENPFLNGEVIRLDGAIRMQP
UniProt Q9NP66: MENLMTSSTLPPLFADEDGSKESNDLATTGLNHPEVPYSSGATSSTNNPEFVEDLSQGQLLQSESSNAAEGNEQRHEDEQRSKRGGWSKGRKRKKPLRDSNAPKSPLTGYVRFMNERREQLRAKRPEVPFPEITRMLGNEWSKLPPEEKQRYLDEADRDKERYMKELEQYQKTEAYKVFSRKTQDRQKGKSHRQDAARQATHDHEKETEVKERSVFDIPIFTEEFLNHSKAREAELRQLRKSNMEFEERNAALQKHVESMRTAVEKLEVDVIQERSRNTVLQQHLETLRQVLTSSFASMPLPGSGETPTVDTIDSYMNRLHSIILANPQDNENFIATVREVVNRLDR
UniProt P42694: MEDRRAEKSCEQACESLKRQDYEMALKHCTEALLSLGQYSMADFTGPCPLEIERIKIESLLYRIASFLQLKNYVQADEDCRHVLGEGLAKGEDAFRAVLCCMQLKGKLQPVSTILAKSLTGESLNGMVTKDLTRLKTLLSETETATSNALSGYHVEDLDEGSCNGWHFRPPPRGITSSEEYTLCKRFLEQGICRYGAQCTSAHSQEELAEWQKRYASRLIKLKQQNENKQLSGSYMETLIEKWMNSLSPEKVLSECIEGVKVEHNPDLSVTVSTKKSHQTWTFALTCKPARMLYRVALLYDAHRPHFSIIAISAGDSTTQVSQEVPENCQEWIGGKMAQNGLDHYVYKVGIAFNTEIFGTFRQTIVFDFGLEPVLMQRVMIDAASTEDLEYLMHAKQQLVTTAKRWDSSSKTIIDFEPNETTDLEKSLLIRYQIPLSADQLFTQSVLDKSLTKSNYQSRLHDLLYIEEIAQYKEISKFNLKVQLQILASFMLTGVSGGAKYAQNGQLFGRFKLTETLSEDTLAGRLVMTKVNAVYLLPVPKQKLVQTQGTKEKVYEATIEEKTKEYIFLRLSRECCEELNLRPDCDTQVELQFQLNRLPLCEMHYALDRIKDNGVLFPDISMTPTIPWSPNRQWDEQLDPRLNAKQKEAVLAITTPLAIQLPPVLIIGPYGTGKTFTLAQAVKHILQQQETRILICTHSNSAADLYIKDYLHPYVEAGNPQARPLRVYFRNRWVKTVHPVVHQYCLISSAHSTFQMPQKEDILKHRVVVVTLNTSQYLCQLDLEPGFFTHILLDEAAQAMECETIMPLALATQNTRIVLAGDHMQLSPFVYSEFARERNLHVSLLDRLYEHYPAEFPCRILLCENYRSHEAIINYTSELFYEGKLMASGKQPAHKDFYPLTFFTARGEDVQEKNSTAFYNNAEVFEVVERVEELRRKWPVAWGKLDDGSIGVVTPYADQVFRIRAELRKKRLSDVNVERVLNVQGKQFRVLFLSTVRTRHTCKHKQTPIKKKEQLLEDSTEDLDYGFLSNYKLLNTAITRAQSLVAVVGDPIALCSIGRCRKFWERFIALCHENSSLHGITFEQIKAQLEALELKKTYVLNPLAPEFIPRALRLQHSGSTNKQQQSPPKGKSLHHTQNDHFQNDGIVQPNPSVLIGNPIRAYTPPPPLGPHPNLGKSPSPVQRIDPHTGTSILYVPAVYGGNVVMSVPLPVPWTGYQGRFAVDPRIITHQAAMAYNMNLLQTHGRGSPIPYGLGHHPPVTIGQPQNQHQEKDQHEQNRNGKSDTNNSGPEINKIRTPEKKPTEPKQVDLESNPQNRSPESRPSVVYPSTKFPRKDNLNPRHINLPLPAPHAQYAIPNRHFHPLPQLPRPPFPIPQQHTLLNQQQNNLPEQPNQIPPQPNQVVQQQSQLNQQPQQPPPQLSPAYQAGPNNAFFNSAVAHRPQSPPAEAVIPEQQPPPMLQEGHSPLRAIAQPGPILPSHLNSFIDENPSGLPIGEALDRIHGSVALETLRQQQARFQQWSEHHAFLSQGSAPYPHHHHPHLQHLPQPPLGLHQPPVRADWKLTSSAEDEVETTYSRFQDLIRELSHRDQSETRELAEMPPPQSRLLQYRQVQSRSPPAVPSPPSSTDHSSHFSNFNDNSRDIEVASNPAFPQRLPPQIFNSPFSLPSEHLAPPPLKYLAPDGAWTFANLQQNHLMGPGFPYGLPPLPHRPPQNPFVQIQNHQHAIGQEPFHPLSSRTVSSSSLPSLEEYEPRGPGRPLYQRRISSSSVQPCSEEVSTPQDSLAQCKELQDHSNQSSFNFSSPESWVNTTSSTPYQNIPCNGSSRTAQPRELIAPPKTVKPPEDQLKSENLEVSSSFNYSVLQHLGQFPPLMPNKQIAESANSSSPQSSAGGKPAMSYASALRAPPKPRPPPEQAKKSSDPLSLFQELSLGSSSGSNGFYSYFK
UniProt Q53FT3: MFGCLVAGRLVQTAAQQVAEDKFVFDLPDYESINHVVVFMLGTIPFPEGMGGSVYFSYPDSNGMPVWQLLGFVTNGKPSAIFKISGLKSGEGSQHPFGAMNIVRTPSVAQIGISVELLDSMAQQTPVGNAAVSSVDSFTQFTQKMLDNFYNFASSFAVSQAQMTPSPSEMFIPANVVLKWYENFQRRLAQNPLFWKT
UniProt Q9BUJ2: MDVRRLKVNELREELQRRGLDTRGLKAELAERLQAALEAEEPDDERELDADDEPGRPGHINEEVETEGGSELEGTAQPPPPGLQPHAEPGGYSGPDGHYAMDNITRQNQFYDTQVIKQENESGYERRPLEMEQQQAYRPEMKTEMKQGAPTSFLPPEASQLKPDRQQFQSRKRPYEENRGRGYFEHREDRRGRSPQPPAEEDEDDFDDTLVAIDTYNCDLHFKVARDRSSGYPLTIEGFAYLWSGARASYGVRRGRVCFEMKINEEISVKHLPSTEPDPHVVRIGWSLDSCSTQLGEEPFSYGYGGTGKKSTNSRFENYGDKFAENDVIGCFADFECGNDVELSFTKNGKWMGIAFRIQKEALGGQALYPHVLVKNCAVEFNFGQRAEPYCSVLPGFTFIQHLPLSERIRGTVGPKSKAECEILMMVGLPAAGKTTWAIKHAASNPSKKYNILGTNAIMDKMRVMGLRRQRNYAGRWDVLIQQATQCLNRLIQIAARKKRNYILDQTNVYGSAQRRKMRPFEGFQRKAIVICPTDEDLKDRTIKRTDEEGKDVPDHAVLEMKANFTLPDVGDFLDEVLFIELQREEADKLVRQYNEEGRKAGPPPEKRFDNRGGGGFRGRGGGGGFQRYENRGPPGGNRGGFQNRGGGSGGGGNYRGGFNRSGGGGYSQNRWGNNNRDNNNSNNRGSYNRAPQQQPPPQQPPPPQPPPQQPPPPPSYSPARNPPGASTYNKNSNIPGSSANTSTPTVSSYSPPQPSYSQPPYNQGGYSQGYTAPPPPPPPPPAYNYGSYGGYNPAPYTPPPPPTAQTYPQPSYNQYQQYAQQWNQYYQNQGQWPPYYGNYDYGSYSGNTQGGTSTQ
UniProt P31943: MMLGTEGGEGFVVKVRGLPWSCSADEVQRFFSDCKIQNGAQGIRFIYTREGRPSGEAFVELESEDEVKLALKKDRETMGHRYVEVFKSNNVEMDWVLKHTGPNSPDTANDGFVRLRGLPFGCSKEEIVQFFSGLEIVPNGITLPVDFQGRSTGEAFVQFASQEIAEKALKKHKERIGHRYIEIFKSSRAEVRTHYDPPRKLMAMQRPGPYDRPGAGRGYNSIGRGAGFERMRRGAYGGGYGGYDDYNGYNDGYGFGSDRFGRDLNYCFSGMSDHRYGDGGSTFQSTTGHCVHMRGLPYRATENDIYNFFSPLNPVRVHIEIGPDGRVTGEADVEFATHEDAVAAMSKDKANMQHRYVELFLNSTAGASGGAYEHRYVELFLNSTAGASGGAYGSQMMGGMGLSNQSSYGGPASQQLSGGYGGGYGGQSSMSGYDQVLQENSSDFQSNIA
UniProt Q8NBQ5: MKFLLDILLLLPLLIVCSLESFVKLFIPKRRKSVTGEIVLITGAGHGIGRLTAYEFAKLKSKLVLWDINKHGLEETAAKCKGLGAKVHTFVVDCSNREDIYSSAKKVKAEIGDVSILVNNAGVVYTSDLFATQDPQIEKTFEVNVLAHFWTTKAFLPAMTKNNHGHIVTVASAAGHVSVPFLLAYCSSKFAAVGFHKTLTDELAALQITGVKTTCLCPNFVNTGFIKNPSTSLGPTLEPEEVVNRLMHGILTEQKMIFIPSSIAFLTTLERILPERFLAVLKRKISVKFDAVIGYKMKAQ
UniProt Q5GLZ8: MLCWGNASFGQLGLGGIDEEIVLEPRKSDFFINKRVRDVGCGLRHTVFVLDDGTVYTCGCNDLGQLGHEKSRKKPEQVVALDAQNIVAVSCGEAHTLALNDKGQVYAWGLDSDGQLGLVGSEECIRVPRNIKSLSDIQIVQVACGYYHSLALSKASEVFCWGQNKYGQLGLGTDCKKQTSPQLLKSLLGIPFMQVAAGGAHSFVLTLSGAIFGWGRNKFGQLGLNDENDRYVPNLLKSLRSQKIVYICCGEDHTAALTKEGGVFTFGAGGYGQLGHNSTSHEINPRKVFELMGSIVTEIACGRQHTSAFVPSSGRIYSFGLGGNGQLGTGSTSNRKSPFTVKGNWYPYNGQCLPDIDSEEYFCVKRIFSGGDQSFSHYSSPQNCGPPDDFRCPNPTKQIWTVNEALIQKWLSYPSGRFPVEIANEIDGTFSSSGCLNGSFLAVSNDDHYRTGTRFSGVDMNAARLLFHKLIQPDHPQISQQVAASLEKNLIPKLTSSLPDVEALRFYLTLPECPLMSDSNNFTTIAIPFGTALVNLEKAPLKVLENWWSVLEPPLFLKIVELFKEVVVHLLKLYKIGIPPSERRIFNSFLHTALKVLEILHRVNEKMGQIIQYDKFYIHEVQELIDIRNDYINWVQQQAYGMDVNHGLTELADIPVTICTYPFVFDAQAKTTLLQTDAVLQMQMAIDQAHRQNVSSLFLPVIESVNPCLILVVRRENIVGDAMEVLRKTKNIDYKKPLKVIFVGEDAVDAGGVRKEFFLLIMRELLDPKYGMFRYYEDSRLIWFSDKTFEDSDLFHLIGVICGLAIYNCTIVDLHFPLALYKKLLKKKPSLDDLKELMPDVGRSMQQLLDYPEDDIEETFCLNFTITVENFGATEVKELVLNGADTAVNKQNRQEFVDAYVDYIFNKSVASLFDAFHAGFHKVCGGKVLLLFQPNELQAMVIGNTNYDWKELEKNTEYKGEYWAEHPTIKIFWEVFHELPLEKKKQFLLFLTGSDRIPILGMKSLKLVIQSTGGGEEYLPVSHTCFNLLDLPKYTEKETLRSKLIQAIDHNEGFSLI
UniProt P09429: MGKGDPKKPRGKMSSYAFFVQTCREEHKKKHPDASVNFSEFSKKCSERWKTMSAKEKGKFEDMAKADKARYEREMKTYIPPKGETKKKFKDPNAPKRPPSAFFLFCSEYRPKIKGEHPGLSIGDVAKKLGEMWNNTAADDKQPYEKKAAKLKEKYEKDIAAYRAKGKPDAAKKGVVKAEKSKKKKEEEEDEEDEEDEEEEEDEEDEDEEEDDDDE
UniProt O75506: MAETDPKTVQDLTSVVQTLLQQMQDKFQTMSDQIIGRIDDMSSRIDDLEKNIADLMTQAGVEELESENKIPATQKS

These targets were tested with CNc1nc(-c2ccc3c(N)n[nH]c3c2)cc(N2C[C@@H](C(=O)NC3CCCCC3)CC[C@H]2C)n1 (assay: log2 fold change, soluble protein after heating vs DMSO (PISA); higher = thermal stabilisation; K562 lysate, 10 uM; active = over 0.2 and 3.5 SD of the protein, either way, in both replicates (recomputed)).
Summary of the method: (§1)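 Dounce homogenisation of K562 pellets in PBS pH 7.4 with 1 mM MgCl2 produced a crude extract, used at 1 mg/mL protein. Exposure to 10 μM compound lasted 30 min, and aliquots were then heated for 3 min across 48°C-58°C, pooled and brought to 0.5% NP-40 at 4°C. The supernatant after 21,000xg for 90 min was quantified by TMTpro 16plex LC-MS/MS with channel sums equalised. Duplicate values are given as log-two fold change in thermal stability relative to solvent controls.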

log2 fold change, inactive:
HSPA14 (UniProt Q0VDF9) -0.011, HEXIM1 (UniProt O94992) 0.068, HNRNPR (UniProt O43390) -0.046, HINT3 (UniProt Q9NQE9) 0.092, HMGN1 (UniProt P05114) 0.012, HNRNPDL (UniProt O14979) -0.002, HEMGN (UniProt Q9BXL5) 0.035, HMGCL (UniProt P35914) 0.055, HSPA13 (UniProt P48723) -0.015, HNRNPA1 (UniProt P09651) 0.055, HELQ (UniProt Q8TDG4) 0.054, HIF1AN (UniProt Q9NWT6) 0.071, HM13 isoform 2 (UniProt Q8TCT9) 0.054, HSD17B10 (UniProt Q99714) 0.05, HMG20A (UniProt Q9NP66) -0.055, HP1BP3 (UniProt Q5SSJ5) -0.017, HELZ (UniProt P42694) -0.023, HEPH isoform 3 (UniProt Q9BQS7) -0.046, HPRT1 (UniProt P00492) -0.08, HIKESHI (UniProt Q53FT3) 0.033, HNRNPUL1 (UniProt Q9BUJ2) -0.027, HNRNPA1 (UniProt H0YH80) -0.135, HNRNPA0 (UniProt Q13151) 0.023, HNRNPH1 (UniProt P31943) -0.06, HSD17B11 (UniProt Q8NBQ5) -0.002, HERC4 (UniProt Q5GLZ8) -0.004, HSDL1 (UniProt Q3SXM5) 0.021, HMGB1 (UniProt P09429) 0.046, HSF1 (UniProt Q00613) -0.023, HECTD3 (UniProt Q5T447) -0.023, HSBP1 (UniProt O75506) 0.02, HNRNPAB isoform 3 (UniProt Q99729) 0.043

What follows are targets tested with COC(=O)N[C@@H](C)CNc1nccc(-c2cn(C(C)C)nc2-c2cc(Cl)cc(NS(C)(=O)=O)c2F)n1 [encorafenib] in the same assay as above.
Summary of the method: as §1

log2 fold change, inactive:
HSPA14 (UniProt Q0VDF9) -0.004, HEXIM1 (UniProt O94992) 0.004, HNRNPR (UniProt O43390) 0.104, HINT3 (UniProt Q9NQE9) 0.023, HMGN1 (UniProt P05114) -0.035, HNRNPDL (UniProt O14979) -0.028, HEMGN (UniProt Q9BXL5) -0.023, HMGCL (UniProt P35914) 0.032, HSPA13 (UniProt P48723) 0.01, HNRNPA1 (UniProt P09651) -0.028, HELQ (UniProt Q8TDG4) 0.046, HIF1AN (UniProt Q9NWT6) 0.013, HM13 isoform 2 (UniProt Q8TCT9) 0.018, HSD17B10 (UniProt Q99714) -0.035, HMG20A (UniProt Q9NP66) -0.012, HP1BP3 (UniProt Q5SSJ5) 0.008, HELZ (UniProt P42694) 0.008, HEPH isoform 3 (UniProt Q9BQS7) 0.048, HPRT1 (UniProt P00492) -0.005, HIKESHI (UniProt Q53FT3) -0.024, HNRNPUL1 (UniProt Q9BUJ2) 0.003, HNRNPA1 (UniProt H0YH80) 0.041, HNRNPA0 (UniProt Q13151) 0.065, HNRNPH1 (UniProt P31943) 0.072, HSD17B11 (UniProt Q8NBQ5) -0.008, HERC4 (UniProt Q5GLZ8) -0.012, HSDL1 (UniProt Q3SXM5) -0.027, HMGB1 (UniProt P09429) -0.006, HSF1 (UniProt Q00613) 0.022, HECTD3 (UniProt Q5T447) 0.02, HSBP1 (UniProt O75506) -0.004, HNRNPAB isoform 3 (UniProt Q99729) -0.012

Each target was assayed with COC(=O)[C@H](CCSC)NC(=O)C1=C(C=C(C=C1)NC[C@H](CS)N)C2=CC=CC=C2 in the same assay as above.
Summary of the method: as §1

log2 fold change, inactive:
HSPA14 (UniProt Q0VDF9) 0.153, HEXIM1 (UniProt O94992) -0.061, HNRNPR (UniProt O43390) -0.064, HINT3 (UniProt Q9NQE9) -0.011, HMGN1 (UniProt P05114) -0.008, HNRNPDL (UniProt O14979) -0.017, HEMGN (UniProt Q9BXL5) 0.004, HMGCL (UniProt P35914) -0.102, HSPA13 (UniProt P48723) -0.018, HNRNPA1 (UniProt P09651) -0.02, HELQ (UniProt Q8TDG4) 0.09, HIF1AN (UniProt Q9NWT6) 0.066, HM13 isoform 2 (UniProt Q8TCT9) 0.011, HSD17B10 (UniProt Q99714) 0.141, HMG20A (UniProt Q9NP66) -0.004, HP1BP3 (UniProt Q5SSJ5) 0.083, HELZ (UniProt P42694) -0.004, HEPH isoform 3 (UniProt Q9BQS7) 0.039, HPRT1 (UniProt P00492) -0.062, HIKESHI (UniProt Q53FT3) -0.03, HNRNPUL1 (UniProt Q9BUJ2) -0.003, HNRNPA1 (UniProt H0YH80) -0.028, HNRNPA0 (UniProt Q13151) 0.022, HNRNPH1 (UniProt P31943) -0.038, HSD17B11 (UniProt Q8NBQ5) -0.028, HERC4 (UniProt Q5GLZ8) 0.05, HSDL1 (UniProt Q3SXM5) 0.097, HMGB1 (UniProt P09429) -0.09, HSF1 (UniProt Q00613) -0.023, HECTD3 (UniProt Q5T447) 0.11, HSBP1 (UniProt O75506) -0.141, HNRNPAB isoform 3 (UniProt Q99729) -0.016
